Values from PubChem BioAssay AID504772 (Drosophila RNAi Screening Center, 2011)
Assay: 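Genes that raise or lower Wnt activity at the LRP6 co-receptor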 (primary screen). System: Drosophila clone 8 cells. Knock-down reagent: long dsRNA against Drosophila genes. Duration: four days. Challenge: pathway switched on by co-transfected constitutively active LRP6 lacking its extracellular part (DeltaNLRP6). Read-out: 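Light from a beta-catenin-dependent firefly luciferase reporter (dTF12) relative to co-transfected Renilla luciferase, given as up or down, after four days with Wnt signalling driven by truncated active LRP6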. Rule for the call: 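a gene is picked when its silencing raises Wnt reporter signal by twofold or more and a human counterpart of the fly gene is known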. Calls: active = picked as conserved enhancer hit; inactive = not picked.
This is not the whole library: the list holds selected reagents. 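Only primary screen hits listed, as up or down without numbers; fold changes behind calls not deposited; all reporter-lowering hits marked not picked.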 No sequences are given here. The record does not give: the amount of reagent, the dose of the treatment.

SF2 → reporter change after knockdown = reporter signal went down; outcome = inactive
CG12071 → reporter change after knockdown = reporter signal went down; outcome = inactive
Nup205 → reporter change after knockdown = reporter signal went up; outcome = inactive
CG10969 → reporter change after knockdown = reporter signal went down; outcome = inactive
dre4 → reporter change after knockdown = reporter signal went up; outcome = inactive
tai → reporter change after knockdown = reporter signal went down; outcome = inactive
RpS3A → reporter change after knockdown = reporter signal went down; outcome = inactive
CG34354 → reporter change after knockdown = reporter signal went down; outcome = inactive
Mfap1 → reporter change after knockdown = reporter signal went up; outcome = active
B-H2 → reporter change after knockdown = reporter signal went down; outcome = inactive
Lint-1 → reporter change after knockdown = reporter signal went down; outcome = inactive
Rop → reporter change after knockdown = reporter signal went up; outcome = inactive
Hipk → reporter change after knockdown = reporter signal went down; outcome = inactive
Gprk2 → reporter change after knockdown = reporter signal went down; outcome = inactive
mxt → reporter change after knockdown = reporter signal went up; outcome = inactive
Wnk → reporter change after knockdown = reporter signal went down; outcome = inactive
Nup93-1 → reporter change after knockdown = reporter signal went up; outcome = inactive
Trf2 → reporter change after knockdown = reporter signal went up; outcome = inactive
CG43773 → reporter change after knockdown = reporter signal went down; outcome = inactive
spri → reporter change after knockdown = reporter signal went down; outcome = inactive
SKIP → reporter change after knockdown = reporter signal went up; outcome = inactive
CG33270 → reporter change after knockdown = reporter signal went down; outcome = inactive
Fkbp39 → reporter change after knockdown = reporter signal went down; outcome = inactive
CG11790 → reporter change after knockdown = reporter signal went up; outcome = inactive
enok → reporter change after knockdown = reporter signal went up; outcome = active
SkpB → reporter change after knockdown = reporter signal went up; outcome = inactive
pygo → reporter change after knockdown = reporter signal went down; outcome = inactive
CG13784 → reporter change after knockdown = reporter signal went down; outcome = inactive

6 of these entries in another layout:
Wnk
- reporter change after knockdown: reporter signal went down
- outcome: inactive

Nup93-1
- reporter change after knockdown: reporter signal went up
- outcome: inactive

Trf2
- reporter change after knockdown: reporter signal went up
- outcome: inactive

CG43773
- reporter change after knockdown: reporter signal went down
- outcome: inactive

spri
- reporter change after knockdown: reporter signal went down
- outcome: inactive

SKIP
- reporter change after knockdown: reporter signal went up
- outcome: inactive

The list goes on:
CG42724 → reporter change after knockdown = reporter signal went up; outcome = inactive
velo → reporter change after knockdown = reporter signal went up; outcome = inactive
RanBPM → reporter change after knockdown = reporter signal went down; outcome = inactive
zfh1 → reporter change after knockdown = reporter signal went down; outcome = inactive
Rm62 → reporter change after knockdown = reporter signal went up; outcome = inactive
CG12299 → reporter change after knockdown = reporter signal went up; outcome = inactive
apt → reporter change after knockdown = reporter signal went down; outcome = inactive
CG11030 → reporter change after knockdown = reporter signal went down; outcome = inactive
crol → reporter change after knockdown = reporter signal went up; outcome = inactive
Fs(2)Ket → reporter change after knockdown = reporter signal went up; outcome = active
cic → reporter change after knockdown = reporter signal went down; outcome = inactive
msopa → reporter change after knockdown = reporter signal went down; outcome = inactive
tral → reporter change after knockdown = reporter signal went down; outcome = inactive
Gas41 → reporter change after knockdown = reporter signal went up; outcome = inactive
CG43902 → reporter change after knockdown = reporter signal went up; outcome = inactive
Cyfip → reporter change after knockdown = reporter signal went up; outcome = inactive
Ran → reporter change after knockdown = reporter signal went up; outcome = active
Taf7 → reporter change after knockdown = reporter signal went up; outcome = inactive
ec → reporter change after knockdown = reporter signal went up; outcome = inactive
